Assay results reported in publication PMC6107761.
Results are given in words; binding and its absence hold for the method and conditions named. Some entries that bind do so weakly or less than the wild type.

By UniProt entry, the sequences of proteins in these tests, tags left out. Where a name states a change or a piece, a line headed by the entry shows the natural chain unless it says otherwise. Chains listed by the source or under a name are the forms on record and can include a tag or linker.
human E64D CIB2 (O75838-1, form named): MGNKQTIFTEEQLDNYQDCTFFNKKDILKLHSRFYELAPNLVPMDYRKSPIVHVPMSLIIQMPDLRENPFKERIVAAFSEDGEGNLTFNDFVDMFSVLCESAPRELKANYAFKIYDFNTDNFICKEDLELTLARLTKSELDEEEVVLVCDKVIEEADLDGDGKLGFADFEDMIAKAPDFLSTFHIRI

Columns and labels:
[1] = target: T1, peptide of the membrane proximal segment of the cytoplasmic domain of α7B integrin, residues 1101-1116; experiment: other fluorescence titration; results not shown: Trp emission spectra of the peptides with E64D CIB2, as for the WT; both purified
T1 sequence (peptide, N-terminal acetyl (Ac-); C-terminal amide (-NH2)): LLLWKMGFFKRAKHPE

[2] = target: T2, scrambled peptide obtained by shuffling the α7B_M sequence; experiment: other fluorescence titration; Trp emission spectra of 4 μM peptide alone and with fixed concentrations of WT CIB2 (8 μM for α7B_M; 2, 4 and 8 μM for Scrb); 20 mM Hepes, 150 mM KCl, 1 mM DTT pH 7.5, 37°C, 1 mM Mg2+ and 1 mM Ca2+; both purified
T2 sequence (peptide, N-terminal acetyl (Ac-); C-terminal amide (-NH2)): KEFWGLHAKPRLKLMF

| binding [1] | binding [2] | Substance |
| --- | --- | --- |
| binds |  | human E64D CIB2 (from UniProt O75838-1 1-187) |
|  | no binding (tested: 8 μM) | human wild type calcium and integrin binding protein 2 (CIB2) (from UniProt O75838-1 1-187) |
